Laboratory results taken from patent US6680295B1, “Method and pharmaceutical composition for prevention and treatment of brain damage” (priority 1994, dated 2004).
No constants are given. Whether binding was seen depends on the method and setting. Some binding calls cover weakened binding; strength is not graded here.

By UniProt entry, the sequences of proteins in these tests, tags left out. Residues count along the entry.
UniProt P32215, residues 20-523: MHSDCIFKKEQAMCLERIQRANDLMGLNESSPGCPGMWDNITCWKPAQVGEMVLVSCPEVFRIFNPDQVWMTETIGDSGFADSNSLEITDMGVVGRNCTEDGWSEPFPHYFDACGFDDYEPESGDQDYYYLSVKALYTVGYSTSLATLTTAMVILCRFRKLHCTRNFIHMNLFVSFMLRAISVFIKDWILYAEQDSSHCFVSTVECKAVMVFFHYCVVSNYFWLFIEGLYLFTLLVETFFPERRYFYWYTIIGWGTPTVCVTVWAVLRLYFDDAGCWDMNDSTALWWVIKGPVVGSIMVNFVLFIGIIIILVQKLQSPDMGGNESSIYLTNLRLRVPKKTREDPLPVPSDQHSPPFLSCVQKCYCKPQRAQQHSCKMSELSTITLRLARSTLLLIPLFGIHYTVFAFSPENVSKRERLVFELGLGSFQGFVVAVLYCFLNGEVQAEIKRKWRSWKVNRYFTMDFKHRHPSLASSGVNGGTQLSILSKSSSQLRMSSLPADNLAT

Target: PACAP receptor (PACAP binding sites) in rat brain membrane preparations (rat) (UniProt P32215)
Test: radioreceptor assay, displacement of 125I-PACAP27 from E18 rat brain membranes

binding: binds
Binder: HSDGIFTDSYSRYRKQMAVKKYLAAVLGKRYKQRVKNK (C-terminal amide (NH2 attached to the C-terminal Lysine)) [Pituitary adenylate cyclase activating polypeptide, complete form with 38 amino acids (PACAP38)]
